{"sequences": {"note": "By UniProt entry, the sequences of proteins in these tests, tags left out. Where a name states a change or a piece, a line headed by the entry shows the natural chain unless it says otherwise.", "UniProt Q15527": "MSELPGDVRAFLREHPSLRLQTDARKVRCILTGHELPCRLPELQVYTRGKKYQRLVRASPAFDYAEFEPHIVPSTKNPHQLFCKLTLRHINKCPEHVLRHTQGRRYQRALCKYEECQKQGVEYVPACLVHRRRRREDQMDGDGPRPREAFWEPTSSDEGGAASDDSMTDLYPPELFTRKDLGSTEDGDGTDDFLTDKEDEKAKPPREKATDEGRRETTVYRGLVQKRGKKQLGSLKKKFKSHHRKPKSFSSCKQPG", "UniProt P21579, whole entry": "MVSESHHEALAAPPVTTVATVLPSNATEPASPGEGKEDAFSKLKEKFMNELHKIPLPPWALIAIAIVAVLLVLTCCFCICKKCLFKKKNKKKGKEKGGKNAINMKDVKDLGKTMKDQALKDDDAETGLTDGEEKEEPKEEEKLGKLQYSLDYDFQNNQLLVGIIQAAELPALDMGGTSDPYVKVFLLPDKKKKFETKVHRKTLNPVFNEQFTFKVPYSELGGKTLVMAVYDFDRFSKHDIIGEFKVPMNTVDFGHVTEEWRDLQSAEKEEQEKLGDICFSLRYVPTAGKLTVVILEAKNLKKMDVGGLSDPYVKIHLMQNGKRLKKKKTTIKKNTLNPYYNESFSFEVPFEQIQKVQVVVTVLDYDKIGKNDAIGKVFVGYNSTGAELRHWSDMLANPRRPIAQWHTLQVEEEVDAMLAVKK"}, "source": "paper PMC5996148", "assay_in_all_cases": "protein microarray (ProtoArray v5.0), streptavidin-Alexa Fluor 647", "conditions_in_all_cases": "3'-biotin; 20 mM Tris (pH 7.5), 5 mM MgCl2, 100 mM KCl, 0.1% Tween-20, A/T-rich and random oligonucleotide blockers; temperature not stated; high values mean tight binding", "key": {"[1]": {"system": "SULT1B1 (human)"}, "[2]": {"system": "SULT2B1 (human)"}, "[3]": {"biological_target": "SURF2 (UniProt Q15527)"}, "[4]": {"system": "SURF4 (human)"}, "[5]": {"system": "SUSD4 (human)"}, "[6]": {"system": "SWI/SNF-related matrix-associated actin-dependent regulator of chromatin subfamily D member 2 (human)"}, "[7]": {"system": "SYCE1 (human)"}, "[8]": {"biological_target": "T1, SYCP3 (UniProt Q8IZU3)", "T1 sequence": "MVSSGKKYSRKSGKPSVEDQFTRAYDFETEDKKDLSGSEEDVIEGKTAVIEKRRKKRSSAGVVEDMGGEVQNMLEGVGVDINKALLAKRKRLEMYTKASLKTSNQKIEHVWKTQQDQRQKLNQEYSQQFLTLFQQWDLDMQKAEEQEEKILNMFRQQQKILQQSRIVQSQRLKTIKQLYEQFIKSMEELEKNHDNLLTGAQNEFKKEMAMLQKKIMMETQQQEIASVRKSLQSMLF"}, "[9]": {"system": "SYMPK (human)"}, "[10]": {"system": "SYNGR2 (human)"}, "[11]": {"system": "SYNGR4 (human)"}, "[12]": {"biological_target": "SYT1 (UniProt P21579)"}, "[13]": {"biological_target": "T2, SYTL2 (UniProt Q9HCH5)", "T2 sequence": "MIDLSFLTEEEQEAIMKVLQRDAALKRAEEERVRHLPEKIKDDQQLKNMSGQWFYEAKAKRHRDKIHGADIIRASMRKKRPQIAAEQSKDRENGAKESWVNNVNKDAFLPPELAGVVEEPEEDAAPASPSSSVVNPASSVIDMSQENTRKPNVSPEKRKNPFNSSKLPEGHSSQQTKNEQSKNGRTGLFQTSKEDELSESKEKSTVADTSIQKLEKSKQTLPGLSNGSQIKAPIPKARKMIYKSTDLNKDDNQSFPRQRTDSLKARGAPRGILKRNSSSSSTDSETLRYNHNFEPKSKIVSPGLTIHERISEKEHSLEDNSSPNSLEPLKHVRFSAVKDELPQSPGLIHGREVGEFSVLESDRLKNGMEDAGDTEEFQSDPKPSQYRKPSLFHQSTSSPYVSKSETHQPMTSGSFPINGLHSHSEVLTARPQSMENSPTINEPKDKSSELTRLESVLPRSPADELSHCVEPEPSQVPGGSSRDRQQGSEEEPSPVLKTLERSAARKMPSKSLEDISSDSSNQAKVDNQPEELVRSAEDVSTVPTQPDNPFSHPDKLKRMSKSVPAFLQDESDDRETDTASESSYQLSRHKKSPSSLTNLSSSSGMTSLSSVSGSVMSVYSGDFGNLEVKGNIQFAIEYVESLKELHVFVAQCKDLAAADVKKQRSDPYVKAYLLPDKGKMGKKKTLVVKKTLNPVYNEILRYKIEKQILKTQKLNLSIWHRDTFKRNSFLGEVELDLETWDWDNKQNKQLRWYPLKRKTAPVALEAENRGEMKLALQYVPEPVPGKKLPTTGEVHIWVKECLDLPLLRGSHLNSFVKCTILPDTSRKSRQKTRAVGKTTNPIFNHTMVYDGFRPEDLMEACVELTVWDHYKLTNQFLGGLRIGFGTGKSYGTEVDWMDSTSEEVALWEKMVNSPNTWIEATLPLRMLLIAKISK"}, "[14]": {"system": "Scavenger receptor cysteine-rich domain-containing protein LOC284297 (human)"}, "[15]": {"system": "Secretagogin (human)"}, "[16]": {"system": "Selenium-binding protein 1 (human)"}, "[17]": {"system": "Selenoprotein P (human)"}, "[18]": {"system": "Septin-2 (human)"}, "[19]": {"system": "Serine/threonine-protein kinase 12 (human)"}, "[20]": {"system": "Serine/threonine-protein kinase MRCK alpha (human)"}}, "note": "“And” between values parts separate entries of the source, which are not always exact repeats. Equal values may be shown once. The list shows a part of the results. For some assays here: The exact form of the protein is not confirmed."}
{"sequence": "GGTGACAGGGGTATGGGGAGGGG [G4-2 biotinylated (Ct1)]", "values": [{"measurement": "binding signal", "setting": "[1]", "result": -0.384, "unit": "z-score"}, {"measurement": "binding signal", "setting": "[2]", "result": -0.394, "unit": "z-score"}, {"measurement": "binding signal", "setting": "[3]", "result": 4.59, "unit": "z-score"}, {"measurement": "binding signal", "setting": "[4]", "result": -0.368, "unit": "z-score"}, {"measurement": "binding signal", "setting": "[5]", "result": -0.394, "unit": "z-score"}, {"measurement": "binding signal", "setting": "[6]", "result": -0.382, "unit": "z-score"}, {"measurement": "binding signal", "setting": "[7]", "result": "-0.376 z-score and -0.384 z-score"}, {"measurement": "binding signal", "setting": "[8]", "result": 3.54, "unit": "z-score"}, {"measurement": "binding signal", "setting": "[9]", "result": -0.383, "unit": "z-score"}, {"measurement": "binding signal", "setting": "[10]", "result": -0.386, "unit": "z-score"}, {"measurement": "binding signal", "setting": "[11]", "result": -0.377, "unit": "z-score"}, {"measurement": "binding signal", "setting": "[12]", "result": 4.95, "unit": "z-score"}, {"measurement": "binding signal", "setting": "[13]", "result": 4.04, "unit": "z-score"}, {"measurement": "binding signal", "setting": "[14]", "result": -0.398, "unit": "z-score"}, {"measurement": "binding signal", "setting": "[15]", "result": -0.401, "unit": "z-score"}, {"measurement": "binding signal", "setting": "[16]", "result": -0.375, "unit": "z-score"}, {"measurement": "binding signal", "setting": "[17]", "result": -0.375, "unit": "z-score"}, {"measurement": "binding signal", "setting": "[18]", "result": -0.39, "unit": "z-score"}, {"measurement": "binding signal", "setting": "[19]", "result": 6.15, "unit": "z-score"}, {"measurement": "binding signal", "setting": "[20]", "result": -0.397, "unit": "z-score"}]}
